Assay results from PMC5865154.
Read-outs that look alike come from different tables or passages of the source. These are yes or no findings as the source states them, for the method shown. In cells and extracts the contact can be indirect. A yes stands for co-enrichment or nearness to the bait. Other partners may have been found. For part of these data: A no says only that the protein was not detected with the bait. Where a sequence is shown, tags or fusion partners need not be part of it.

The chains behind the UniProt entries cited, without tags or fusion partners.
UniProt P54098: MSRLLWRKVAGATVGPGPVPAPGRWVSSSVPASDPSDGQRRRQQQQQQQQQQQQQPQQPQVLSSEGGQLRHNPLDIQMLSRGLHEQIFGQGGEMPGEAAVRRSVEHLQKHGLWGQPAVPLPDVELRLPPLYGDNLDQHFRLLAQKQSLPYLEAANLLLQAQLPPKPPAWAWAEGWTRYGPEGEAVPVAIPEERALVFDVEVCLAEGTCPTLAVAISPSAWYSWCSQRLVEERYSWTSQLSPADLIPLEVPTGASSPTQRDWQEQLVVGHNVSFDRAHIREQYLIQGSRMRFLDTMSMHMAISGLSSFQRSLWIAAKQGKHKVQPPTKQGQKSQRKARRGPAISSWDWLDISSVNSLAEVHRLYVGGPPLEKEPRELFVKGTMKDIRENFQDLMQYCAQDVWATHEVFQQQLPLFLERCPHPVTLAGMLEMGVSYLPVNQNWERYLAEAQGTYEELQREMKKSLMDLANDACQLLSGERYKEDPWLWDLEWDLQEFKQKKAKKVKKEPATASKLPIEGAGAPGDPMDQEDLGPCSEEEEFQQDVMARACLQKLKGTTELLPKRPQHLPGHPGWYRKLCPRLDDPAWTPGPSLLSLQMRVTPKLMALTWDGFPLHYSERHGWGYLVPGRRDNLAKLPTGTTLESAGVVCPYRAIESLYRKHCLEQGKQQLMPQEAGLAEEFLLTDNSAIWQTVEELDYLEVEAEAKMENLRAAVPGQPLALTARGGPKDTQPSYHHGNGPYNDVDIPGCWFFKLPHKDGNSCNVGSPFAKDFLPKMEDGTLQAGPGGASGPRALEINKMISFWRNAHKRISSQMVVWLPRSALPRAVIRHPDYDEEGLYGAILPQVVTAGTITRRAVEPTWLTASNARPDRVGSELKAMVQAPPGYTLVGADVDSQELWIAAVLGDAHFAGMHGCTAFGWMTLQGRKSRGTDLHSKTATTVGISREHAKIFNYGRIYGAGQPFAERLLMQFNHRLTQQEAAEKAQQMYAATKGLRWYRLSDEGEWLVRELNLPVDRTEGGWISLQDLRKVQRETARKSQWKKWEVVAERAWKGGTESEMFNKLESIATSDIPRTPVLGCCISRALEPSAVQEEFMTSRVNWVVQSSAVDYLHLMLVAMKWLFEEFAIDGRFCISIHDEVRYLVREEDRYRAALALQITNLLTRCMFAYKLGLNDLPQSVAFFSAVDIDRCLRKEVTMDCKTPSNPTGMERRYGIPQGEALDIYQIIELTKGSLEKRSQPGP

T1: human MGME1-BirA*-HA (mitochondrial genome maintenance exonuclease 1 fused to BirA R118G and HA) (human) (UniProt Q9BQP7)
T1 sequence: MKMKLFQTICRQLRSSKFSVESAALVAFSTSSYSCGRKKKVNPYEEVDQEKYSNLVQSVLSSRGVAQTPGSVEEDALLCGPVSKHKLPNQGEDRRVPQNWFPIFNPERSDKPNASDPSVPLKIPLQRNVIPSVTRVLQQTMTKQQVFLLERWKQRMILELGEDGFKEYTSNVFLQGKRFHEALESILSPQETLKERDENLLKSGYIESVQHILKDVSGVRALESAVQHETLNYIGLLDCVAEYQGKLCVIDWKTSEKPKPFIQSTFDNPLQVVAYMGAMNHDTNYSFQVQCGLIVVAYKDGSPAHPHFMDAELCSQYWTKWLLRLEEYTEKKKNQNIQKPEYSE

B1: replicative DNA helicase TWINKLE (enzyme, UniProt Q96RR1 32-684)
chain: APGPPRRRYRKETLQALDMPVLPVTATEIRQYLRGHGIPFQDGHSCLRALSPFAESSQLKGQTGVTTSFSLFIDKTTGHFLCMTSLAEGSWEDFQASVEGRGDGAREGFLLSKAPEFEDSEEVRRIWNRAIPLWELPDQEEVQLADTMFGLTKVTDDTLKRFSVRYLRPARSLVFPWFSPGGSGLRGLKLLEAKCQGDGVSYEETTIPRPSAYHNLFGLPLISRRDAEVVLTSRELDSLALNQSTGLPTLTLPRGTTCLPPALLPYLEQFRRIVFWLGDDLRSWEAAKLFARKLNPKRCFLVRPGDQQPRPLEALNGGFNLSRILRTALPAWHKSIVSFRQLREEVLGELSNVEQAAGLRWSRFPDLNRILKGHRKGELTVFTGPTGSGKTTFISEYALDLCSQGVNTLWGSFEISNVRLARVMLTQFAEGRLEDQLDKYDHWADRFEDLPLYFMTFHGQQSIRTVIDTMQHAVYVYDICHVIIDNLQFMMGHEQLSTDRIAAQDYIIGVFRKFATDNNCHVTLVIHPRKEDDDKELQTASIFGSAKASQEADNVLILQDRKLVTGPGKRYLQVSKNRFDGDVGVFPLEFNKNSLTFSIPPKNKARLKKIKDDTGPVAKKPSSGKKGATTQNSEICSGQAPTPDQPDTSKRSK
B2: methylcrotonyl-CoA carboxylase (MCCC1) (enzyme, UniProt Q96RQ3 42-725)
chain: TTATGRNITKVLIANRGEIACRVMRTAKKLGVQTVAVYSEADRNSMHVDMADEAYSIGPAPSQQSYLSMEKIIQVAKTSAAQAIHPGCGFLSENMEFAELCKQEGIIFIGPPPSAIRDMGIKSTSKSIMAAAGVPVVEGYHGEDQSDQCLKEHARRIGYPVMIKAVRGGGGKGMRIVRSEQEFQEQLESARREAKKSFNDDAMLIEKFVDTPRHVEVQVFGDHHGNAVYLFERDCSVQRRHQKIIEEAPAPGIKSEVRKKLGEAAVRAAKAVNYVGAGTVEFIMDSKHNFCFMEMNTRLQVEHPVTEMITGTDLVEWQLRIAAGEKIPLSQEEITLQGHAFEARIYAEDPSNNFMPVAGPLVHLSTPRADPSTRIETGVRQGDEVSVHYDPMIAKLVVWAADRQAALTKLRYSLRQYNIVGLHTNIDFLLNLSGHPEFEAGNVHTDFIPQHHKQLLLSRKAAAKESLCQAALGLILKEKAMTDTFTLQAHDQFSPFSSSSGRRLNISYTRNMTLKDGKNNVAIAVTYNHDGSYSMQIEDKTFQVLGNLYSEGDCTYLKCSVNGVASKAKLIILENTIYLFSKEGSIEIDIPVPKYLSSVSSQETQGGPLAPMTGTIEKVFVKAGDKVKAGDSLMVMIAMKMEHTIKSPKDGTVKKVFYREGAQANRHTPLVEFEEEESDKRESE
modifications: naturally biotinylated

What was measured:
[1] = biological target: T1, human MGME1-BirA*-HA (mitochondrial genome maintenance exonuclease 1 fused to BirA R118G and HA) (human); experiment: proximity labelling; BioID: HeLa cells transfected with MGME1-BirA*-HA, 50 uM biotin for 6 h from 24 h after transfection; lysates on streptavidin Dynabeads at 4 C overnight; LC-MS/MS; control mitochondrially targeted BirA* (mt-BirA*)
[2] = biological target: T1, human MGME1-BirA*-HA (mitochondrial genome maintenance exonuclease 1 fused to BirA R118G and HA) (human); experiment: as above; remark: listed apart in the source

| Molecule | binding [1] | binding [2] |
| --- | --- | --- |
| catalytic subunit of the mtDNA polymerase (POLGA) (from UniProt P54098 1-1239) (enzyme) | binds | – |
| B1 | – | binds |
| B2 | – | no binding |
